In article PMC11074315 one finds binding data, which are given here for 2 molecules.

Results are given in words; binding and its absence hold for the method and conditions named. For some of these results: In cells and extracts the contact can be indirect. Some results given as binding are weak or reduced against the parent protein; the word gives no strength. Tags and fused reporters may be left off the sequences shown.

Test [1] has as its target T1, AUR1 (alpha-Aurora kinase), yeast two-hybrid fusion (Arabidopsis thaliana) (UniProt Q9M077).
T1 sequence: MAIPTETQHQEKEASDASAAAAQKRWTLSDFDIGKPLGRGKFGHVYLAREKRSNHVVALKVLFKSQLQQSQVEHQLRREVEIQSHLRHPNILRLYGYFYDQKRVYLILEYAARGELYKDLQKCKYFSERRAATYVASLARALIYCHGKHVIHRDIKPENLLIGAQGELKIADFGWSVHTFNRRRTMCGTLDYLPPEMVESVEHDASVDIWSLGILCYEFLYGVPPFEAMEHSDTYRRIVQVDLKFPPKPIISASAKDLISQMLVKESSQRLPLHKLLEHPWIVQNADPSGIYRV
Put plainly: two-hybrid; pGADT7-GW (AD) and pGBKT7-GW (BD) fusions in yeast strain AH109; growth on -L/-W/-H/-A selection media, 30 °C, 2 days.

In test [2] the target is T2, AUR3 (beta-group Aurora kinase), yeast two-hybrid fusion (Arabidopsis thaliana) (UniProt O64629).
T2 sequence: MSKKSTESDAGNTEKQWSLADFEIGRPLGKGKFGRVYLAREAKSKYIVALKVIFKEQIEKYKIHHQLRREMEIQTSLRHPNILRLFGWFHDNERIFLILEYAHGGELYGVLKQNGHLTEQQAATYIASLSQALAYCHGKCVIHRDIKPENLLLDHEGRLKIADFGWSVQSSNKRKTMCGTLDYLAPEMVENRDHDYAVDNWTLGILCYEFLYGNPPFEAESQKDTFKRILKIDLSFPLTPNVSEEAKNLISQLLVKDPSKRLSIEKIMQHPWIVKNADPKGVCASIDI
The description is as above.

Test [3] has as its target T3, AUR3, BiFC fusion (Arabidopsis thaliana) (UniProt O64629).
T3 sequence: T2 sequence
The test is described as follows: split reporter; BiFC with nYFP and cYFP fusions co-infiltrated into N. benthamiana leaves; YFP signal read after 48 hours.

The target of test [4] is T4, AUR1, BiFC fusion (Arabidopsis thaliana) (UniProt Q9M077).
T4 sequence: T1 sequence
Described as above.

B1: MAP65-3, full length, yeast two-hybrid fusion (protein, UniProt Q9FHM4 1-707)
chain: MASVQKDPILQVETTCGSLLFELQIIWDEVGETETDRDQMLLELERECLEVYRRKVDQANRCRAQLRQAIADAEAQLAAICSAMGERPVHIRQSDQSVGSLKQELGRILPELEEMQKRKVERRNQFIVVMEQIDSITNDIKGQGELVHSEPLIDETNLSMRKLEELHCQLQVLQKEKIDRVETIRKHLCTLYSHCSVLGMDFNEVVGQVNPTLSDPEGPRSLSDHTIEKLGAAVQKLMEVKIQRMQRLQDLATTMLELWNLMDTPIEEQQEYQHITCNIAASEHEITEANSLSEDFIKYVEAEVVRLDEVKASKMKELVLKKRSELEEICRKTHLLPVSDSAIDQTIVAIESGIVDATMVLEHLEQHISKIKEEALSRKEILERVEKWLSACDEESWLEEYNRDDNRYNAGRGAHLTLKRAEKARNLVTKLPGMVEALASKTIVWEQENGIEFLYDGIRLLSMLEEYNILRQEREEEHRRQRDQKKLQGQLIAEQEALYGSKPSPSKPLGGKKAPRMSTGGASNRRLSLGAAMHQTPKPNKKADHRHNDGALSNGRRGLDIAGLPSRKQSMNPSEMLQSPLVRKPFSPISTTVVASKANIATTTTQQLPKNNAVNEISSFATPIKNNNILRNLEEEKMMTMMMQTPKNVAAMIPIPSTPATVSVPMHTAPTPFTNNARLMSEKPEVVEYSFEERRLAFMLQSECRLV
For the molecule B1, the results for the binding result in test [1] and in test [2] were “binds” and “no binding”, respectively.

B2: MAP65-3, BiFC fusion (protein, UniProt Q9FHM4 1-707)
chain: B1 chain
B2: the values for the binding entry in test [3] and in test [4] were “no binding” and “binds”, respectively.
